The other results are listed elsewhere or left out. Small differences around the control level are noise.

Experiment [1] addresses T1, UniProt P0A9Q9.
T1 sequence (whole entry): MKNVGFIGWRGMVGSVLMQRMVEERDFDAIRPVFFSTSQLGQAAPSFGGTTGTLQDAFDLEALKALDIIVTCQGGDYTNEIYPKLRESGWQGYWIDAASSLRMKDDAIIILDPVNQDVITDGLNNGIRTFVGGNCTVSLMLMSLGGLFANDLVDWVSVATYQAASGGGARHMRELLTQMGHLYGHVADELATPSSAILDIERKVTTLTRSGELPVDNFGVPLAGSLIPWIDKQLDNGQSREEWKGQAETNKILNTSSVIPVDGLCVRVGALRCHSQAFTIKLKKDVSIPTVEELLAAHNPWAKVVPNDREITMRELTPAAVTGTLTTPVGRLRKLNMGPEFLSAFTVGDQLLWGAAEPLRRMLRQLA
Nature of the experiment: log2 fold change of tryptic peptide abundance, ligand vs vehicle (limited proteolysis) (log2 ratio); higher = more trypsin-susceptible (destabilized). Particulars: peptide sequence: EEWKGQAETNK; peptide start residue: 241; ligand concentration: 10 uM; sample: E. coli crude lysate.

The target of experiment [2] is T2, UniProt P0AB87.
T2 sequence (whole entry): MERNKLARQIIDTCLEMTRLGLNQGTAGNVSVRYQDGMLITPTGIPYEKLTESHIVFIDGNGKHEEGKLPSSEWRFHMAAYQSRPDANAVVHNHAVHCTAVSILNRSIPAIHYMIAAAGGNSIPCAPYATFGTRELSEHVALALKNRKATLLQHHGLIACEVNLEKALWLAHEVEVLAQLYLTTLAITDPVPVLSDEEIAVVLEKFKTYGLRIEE
The experiment is described as above. Particulars: peptide sequence: KATLLQHHGLIACEVNLEK; peptide start residue: 148; ligand concentration: 10 uM; sample: E. coli crude lysate.

Consider `CC1(C)S[C@@H]2[C@H](NC(=O)[C@H](N)c3ccccc3)C(=O)N2[C@H]1C(=O)O` [ampicillin], for which the log2 fold change is -0.242 in experiment [1] and -0.294 in experiment [2].
